One molecule from PMC7446885 can be followed below.

For this assay, the target named is T1, TOPLESS (TPL) of Arabidopsis, yeast two-hybrid fusion (Arabidopsis thaliana), Q94AI7.
T1 chain: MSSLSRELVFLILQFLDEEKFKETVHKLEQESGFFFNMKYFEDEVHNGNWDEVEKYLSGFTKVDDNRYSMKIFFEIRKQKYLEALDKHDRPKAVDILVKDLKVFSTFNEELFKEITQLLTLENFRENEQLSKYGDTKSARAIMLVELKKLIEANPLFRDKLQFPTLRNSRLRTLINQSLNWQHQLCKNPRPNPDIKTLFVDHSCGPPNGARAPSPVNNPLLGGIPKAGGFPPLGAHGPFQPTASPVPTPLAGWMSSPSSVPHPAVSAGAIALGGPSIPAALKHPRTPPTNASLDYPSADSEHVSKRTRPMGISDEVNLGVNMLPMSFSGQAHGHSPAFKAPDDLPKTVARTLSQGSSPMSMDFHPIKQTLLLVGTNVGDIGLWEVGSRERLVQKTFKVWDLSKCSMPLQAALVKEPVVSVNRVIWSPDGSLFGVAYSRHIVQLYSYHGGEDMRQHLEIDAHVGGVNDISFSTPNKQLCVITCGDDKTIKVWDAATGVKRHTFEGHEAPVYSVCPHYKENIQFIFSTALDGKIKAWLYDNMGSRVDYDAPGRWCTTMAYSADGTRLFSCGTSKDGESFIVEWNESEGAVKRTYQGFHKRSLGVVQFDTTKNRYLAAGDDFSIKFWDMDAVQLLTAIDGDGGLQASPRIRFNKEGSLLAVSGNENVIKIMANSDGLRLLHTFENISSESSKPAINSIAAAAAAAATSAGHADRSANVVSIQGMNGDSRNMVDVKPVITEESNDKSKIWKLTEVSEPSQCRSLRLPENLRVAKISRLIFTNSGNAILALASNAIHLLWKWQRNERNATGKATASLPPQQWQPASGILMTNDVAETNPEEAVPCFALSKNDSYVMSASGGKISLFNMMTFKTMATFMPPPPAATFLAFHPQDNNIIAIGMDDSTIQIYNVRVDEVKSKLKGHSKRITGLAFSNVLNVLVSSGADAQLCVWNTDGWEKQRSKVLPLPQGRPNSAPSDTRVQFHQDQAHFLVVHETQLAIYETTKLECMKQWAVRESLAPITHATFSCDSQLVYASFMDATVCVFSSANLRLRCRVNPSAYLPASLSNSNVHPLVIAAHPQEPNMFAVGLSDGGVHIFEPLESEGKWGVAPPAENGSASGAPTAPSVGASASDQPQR
Description: two-hybrid; Gal4 AD-X (yeast Y8800) and DB-X (Y8930) fusions mated; growth on SC media lacking Leu, Trp and His (3AT for stringency) or also Ade; tested in both directions. Particulars: remark: other sources report otherwise.

These are yes or no findings as the source states them, for the method shown. Some binding calls cover weakened binding; strength is not graded here. Sequences can lack the tags named with a protein.

B1: TOPLESS (TPL) of Arabidopsis, yeast two-hybrid fusion, Q94AI7 1-1131 (protein)
chain: MSSLSRELVFLILQFLDEEKFKETVHKLEQESGFFFNMKYFEDEVHNGNWDEVEKYLSGFTKVDDNRYSMKIFFEIRKQKYLEALDKHDRPKAVDILVKDLKVFSTFNEELFKEITQLLTLENFRENEQLSKYGDTKSARAIMLVELKKLIEANPLFRDKLQFPTLRNSRLRTLINQSLNWQHQLCKNPRPNPDIKTLFVDHSCGPPNGARAPSPVNNPLLGGIPKAGGFPPLGAHGPFQPTASPVPTPLAGWMSSPSSVPHPAVSAGAIALGGPSIPAALKHPRTPPTNASLDYPSADSEHVSKRTRPMGISDEVNLGVNMLPMSFSGQAHGHSPAFKAPDDLPKTVARTLSQGSSPMSMDFHPIKQTLLLVGTNVGDIGLWEVGSRERLVQKTFKVWDLSKCSMPLQAALVKEPVVSVNRVIWSPDGSLFGVAYSRHIVQLYSYHGGEDMRQHLEIDAHVGGVNDISFSTPNKQLCVITCGDDKTIKVWDAATGVKRHTFEGHEAPVYSVCPHYKENIQFIFSTALDGKIKAWLYDNMGSRVDYDAPGRWCTTMAYSADGTRLFSCGTSKDGESFIVEWNESEGAVKRTYQGFHKRSLGVVQFDTTKNRYLAAGDDFSIKFWDMDAVQLLTAIDGDGGLQASPRIRFNKEGSLLAVSGNENVIKIMANSDGLRLLHTFENISSESSKPAINSIAAAAAAAATSAGHADRSANVVSIQGMNGDSRNMVDVKPVITEESNDKSKIWKLTEVSEPSQCRSLRLPENLRVAKISRLIFTNSGNAILALASNAIHLLWKWQRNERNATGKATASLPPQQWQPASGILMTNDVAETNPEEAVPCFALSKNDSYVMSASGGKISLFNMMTFKTMATFMPPPPAATFLAFHPQDNNIIAIGMDDSTIQIYNVRVDEVKSKLKGHSKRITGLAFSNVLNVLVSSGADAQLCVWNTDGWEKQRSKVLPLPQGRPNSAPSDTRVQFHQDQAHFLVVHETQLAIYETTKLECMKQWAVRESLAPITHATFSCDSQLVYASFMDATVCVFSSANLRLRCRVNPSAYLPASLSNSNVHPLVIAAHPQEPNMFAVGLSDGGVHIFEPLESEGKWGVAPPAENGSASGAPTAPSVGASASDQPQR
On to B1, for which the binding result is recorded as “binds”.
